For assay [1], the target named is T1, Symplekin with twin-StrepII tag (S. pombe Symplekin/Pta1) (S. pombe) (UniProt Q10222).
T1 sequence: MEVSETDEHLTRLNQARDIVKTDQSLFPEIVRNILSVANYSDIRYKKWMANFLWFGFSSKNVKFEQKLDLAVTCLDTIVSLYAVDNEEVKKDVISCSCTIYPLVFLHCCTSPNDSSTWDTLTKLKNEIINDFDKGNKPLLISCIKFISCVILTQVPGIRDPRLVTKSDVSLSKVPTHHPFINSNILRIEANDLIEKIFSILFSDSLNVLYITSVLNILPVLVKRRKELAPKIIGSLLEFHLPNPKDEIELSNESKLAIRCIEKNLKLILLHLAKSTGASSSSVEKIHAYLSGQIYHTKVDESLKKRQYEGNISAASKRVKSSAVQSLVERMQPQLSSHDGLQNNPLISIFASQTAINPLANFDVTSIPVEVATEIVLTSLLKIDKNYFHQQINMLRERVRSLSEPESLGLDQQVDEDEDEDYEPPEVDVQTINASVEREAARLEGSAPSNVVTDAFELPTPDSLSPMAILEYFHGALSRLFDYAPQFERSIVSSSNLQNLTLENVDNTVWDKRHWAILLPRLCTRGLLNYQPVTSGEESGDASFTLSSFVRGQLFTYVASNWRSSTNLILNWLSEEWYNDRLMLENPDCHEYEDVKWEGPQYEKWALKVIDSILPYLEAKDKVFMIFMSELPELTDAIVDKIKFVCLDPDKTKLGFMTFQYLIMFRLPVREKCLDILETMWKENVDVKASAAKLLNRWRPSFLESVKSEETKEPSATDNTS
The assay is described as follows: cross-linking.

In assay [2] the target is WDR82 (S. pombe WDR82/Swd2.2) (S. pombe). The assay is described as follows: crystal structure.

Two molecules from paper doi:10.64898/2025.12.17.694969 can be followed below.

No constants are given. Whether binding was seen depends on the method and setting. Binding calls can cover weak binding; strength is not graded here. For some assays here: Sequences can lack the tags named with a protein.

In the case of WDR82 (S. pombe WDR82/Swd2.2), in assay [1], the binding result is “binds”.

B1: SymplekinNTD (Symplekin residues 1–307) (domain or fragment, UniProt Q10222 1-307)
chain: MEVSETDEHLTRLNQARDIVKTDQSLFPEIVRNILSVANYSDIRYKKWMANFLWFGFSSKNVKFEQKLDLAVTCLDTIVSLYAVDNEEVKKDVISCSCTIYPLVFLHCCTSPNDSSTWDTLTKLKNEIINDFDKGNKPLLISCIKFISCVILTQVPGIRDPRLVTKSDVSLSKVPTHHPFINSNILRIEANDLIEKIFSILFSDSLNVLYITSVLNILPVLVKRRKELAPKIIGSLLEFHLPNPKDEIELSNESKLAIRCIEKNLKLILLHLAKSTGASSSSVEKIHAYLSGQIYHTKVDESLKKRQ
Take B1: the binding result in assay [2] is “binds”.
